Laboratory results: patent publication US20250195521A1 (Revolution Medicines, Inc., priority 2020, published 2025)
Some entries of the source have several records that differ or are many. They are shown here; other results are not. There may be further records. Values that stand side by side differ, and nothing given here explains why; they may come from other doses, times, organisms or constructs than stated.

Sequences of proteins named here, by UniProt entry; tags and fusion partners are left off. A change or cut given only in a name is not applied to a line headed by its entry. A line that says so, or that is headed by a name, gives the form on record, which may keep a tag or linker. Residues count along the entry.
UniProt P01116, 1-164 with tags or gaps G12C limits assumed: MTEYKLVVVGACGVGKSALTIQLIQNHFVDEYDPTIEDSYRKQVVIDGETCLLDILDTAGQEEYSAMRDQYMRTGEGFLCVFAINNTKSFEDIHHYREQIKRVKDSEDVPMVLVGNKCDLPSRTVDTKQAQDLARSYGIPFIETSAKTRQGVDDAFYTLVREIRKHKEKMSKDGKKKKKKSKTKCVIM
UniProt P62937, whole entry, stated change not applied: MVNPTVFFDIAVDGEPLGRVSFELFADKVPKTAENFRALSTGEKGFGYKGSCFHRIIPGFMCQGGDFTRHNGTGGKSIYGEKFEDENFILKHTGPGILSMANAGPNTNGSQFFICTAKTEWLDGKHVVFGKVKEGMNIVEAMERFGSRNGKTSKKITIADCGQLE

Biological target: K-Ras G12C(GMP-PNP) binding to BRAF RBD (Homo sapiens (Human), UniProt P01116+P62937, G12C)
Test: Disruption of BRAF RBD interaction with K-Ras (FRET / MOA assay), K-Ras G12C
Format: biochemical
Conditions: read-out: KRAS G12C FRET IC50

IC50: 100 nM to 1 µM and < 10 nM
Compound: C=CC(=O)N1CC[C@H](C(=O)N(C)[C@H](C(=O)N[C@H]2Cc3cc(O)cc(c3)-c3ccc4c(c3)c(c(-c3cccnc3[C@H](C)OC)n4CC)CC(C)(C)COC(=O)[C@@H]3CCCN(N3)C2=O)C(C)C)C1
